According to PubChem BioAssay AID445 (National Center for Advancing Translational Sciences (NCATS), 2006):
The other results are listed elsewhere or left out. Further columns of the screen follow, without active or inactive calls. Compounds called inactive in the main read-out are mostly missing here. Potencies come from curve fits of mixed quality, noted in brackets.

Test: IkB Signaling
Conditions: ABC-DLBCL IkBa-CBG/CBR dual luciferase ratio (green luciferase fused to IkBa over red control in OCI-Ly3 lymphoma cells), 4 h
Method in brief: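 In this assay, an IκBα–CBG68 fusion accumulates when IKK-driven degradation is blocked; native CBR normalizes for cell number. OCI-Ly3 cells were treated 4 h with compound and doxycycline, then green and red light read after Chroma-Glo addition.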

[1] = measured here: control luc red channel unless noted

Q: For `Cc1cc2ccccc2n1-c1ccc(C(=O)N2CCC(C(=O)NCc3ccccc3Cl)CC2)s1`, which AC50 [1] is on record?
A: 15.8 µM [falling, partial curve, poor fit]

Q: Which AC50 [1] does the source give for `CC(CNC(=O)Cc1ccc(NC(=O)N2CCSc3ncccc32)cc1)c1ccccc1` (stereo not given) here?
A: 12.6 µM [falling, partial curve]

Q: Which AC50 [1] does the source give for `COc1ccc(-c2cn3c(n2)sc2cc(C(=O)Nc4cccc(OC)c4)ccc23)cc1` here?
A: 12.6 µM [falling, partial curve]

Q: Which AC50 [1] does the source give for `Cc1ccccc1NCc1cccn1-c1nnc(N2CCC(C)CC2)s1` here?
A: 39.8 µM [falling, single point]

Q: With `CCOC(=O)C1=C(CN2CCN(c3ccccc3F)CC2)NC(=O)NC1c1ccc(Cl)cc1` (stereo not given) as the compound, how does the AC50 [1] read?
A: 15.8 µM [falling, partial curve]

Q: For `COc1ccc(N2CCN(C(CNC(=O)C(=O)NCCc3ccccc3)c3cccnc3)CC2)cc1` (stereo not given), which AC50 [1] is on record?
A: 31.6 µM [falling, single point]

Q: With `O=S(=O)(c1cccc(-c2csc(-c3cccnc3)n2)c1)N1CCCCC1` as the compound, how does the AC50 [1] read?
A: 25.1 µM [falling, single point]

Q: For `Cc1ccc(CN2CCC(CNC(=O)Nc3cccc(Cl)c3C)C2)cc1` (stereo not given), which AC50 [1] is on record?
A: 39.8 µM [falling, single point]

Q: For `COc1ccc(C)cc1NC(=O)CSc1nc2ccccc2nc1N1CCOCC1`, which AC50 [1] is on record?
A: 39.8 µM [falling, partial curve]

Q: For `O=C(COc1ccc(Cl)cc1)Nc1nnc2n1CCS2`, which AC50 [1] is on record?
A: 25.1 µM [rising, single point]

Q: With `CCOCCCN(C(=O)Nc1ccc(Cl)cc1)C1CCN(C(C)=O)CC1` as the compound, how does the AC50 [1] read?
A: 0.316 µM [rising, partial curve]

Q: For `Cc1c(CNC2CCCCCC2)c(C(=O)O)c(C)n1Cc1ccc(F)cc1Cl`, which AC50 [1] is on record?
A: 15.8 µM [falling, partial curve]

Q: For `CC(C)NC(=O)c1cnc(N2CCN(c3ccccn3)CC2)c2ccccc12`, which AC50 [1] is on record?
A: 15.8 µM [falling, partial curve]

Q: For `COc1cc(OC)cc(-c2nc(-c3cccc(C)c3)no2)c1`, which AC50 [1] is on record?
A: 0.0631 µM [rising, partial curve]

Q: Which AC50 [1] does the source give for `CCc1ccc(-n2c(=O)c3c4c(sc3n(Cc3ccc(C)cc3)c2=O)CCC4)cc1` here?
A: 12.6 µM [falling, partial curve]

Q: For `COc1ccc(CCNc2nccn(-c3ccc(C)c(C)c3)c2=O)cc1OC`, which AC50 [1] is on record?
A: 31.6 µM [falling, partial curve]

Q: Which AC50 [1] does the source give for `Cc1cc(C)cc(N2CC(c3nc(-c4cccc(Cl)c4)no3)CC2=O)c1` (stereo not given) here?
A: 25.1 µM [falling, single point]

Q: Which AC50 [1] does the source give for `O=C(CN(C(=O)CSc1nnc(COc2ccccc2)o1)c1ccc(F)cc1)NC1CCCCC1` here?
A: 7.94 µM [falling, partial curve]

Q: Which AC50 [1] does the source give for `O=C1C(Nc2ccccc2)=CC(c2ccc(Br)cc2)N1c1ccccc1` (stereo not given) here?
A: 1.58 µM [falling, full curve]

Q: For `Oc1oc(-c2ccco2)nc1C=Nc1ccccc1`, which AC50 [1] is on record?
A: 12.6 µM [falling, partial curve]

Q: Which AC50 [1] does the source give for `COc1ccc(CCNC(=O)C(=O)Nc2ccc(C)cc2)cc1OC` here?
A: 20 µM [rising, single point]

Q: With `C=CCSc1nc2c(c(=O)[nH]1)C(C(C)C)C(C#N)=C(N)O2` (stereo not given) as the compound, how does the AC50 [1] read?
A: 20 µM [rising, partial curve]

Q: With `O=S(=O)(NC1CC1)c1ccc(S(=O)(=O)N2CCCc3ccccc32)cc1` as the compound, how does the AC50 [1] read?
A: 39.8 µM [falling, single point]

Q: For `COc1cc(-c2cccs2)cc(=O)c2c(C)oc(C)c12`, which AC50 [1] is on record?
A: 25.1 µM [falling, partial curve]

Q: With `CC(C)(C)c1ccc(C(=O)Nc2cc(-c3nc4ccccc4o3)ccc2Cl)cc1` as the compound, how does the AC50 [1] read?
A: 10 µM [falling, partial curve]

Q: With `CCCCn1c(=O)c2oc3ccccc3c2n(CC(=O)Nc2cccc(Cl)c2C)c1=O` as the compound, how does the AC50 [1] read?
A: 3.98 µM [rising, partial curve]

Q: For `COc1ccc(CC(=O)Nc2cc(Cl)ccc2O)cc1`, which AC50 [1] is on record?
A: 20 µM [falling, partial curve]

Q: For `COc1ccc(Cc2nc3ccc(C(=O)NCc4ccc(OC)cc4OC)cc3o2)cc1`, which AC50 [1] is on record?
A: 12.6 µM [falling, partial curve]

Q: Which AC50 [1] does the source give for `CCOC(=O)Cn1c(=O)oc2cc(S(=O)(=O)N3CCCC(C(=O)OCC)C3)ccc21` (stereo not given) here?
A: 10 µM [falling, partial curve]

Q: With `Cc1ccc(Cn2c(SCc3ccc(C(=O)N4CCCCCC4)cc3)nc3ccncc32)cc1` as the compound, how does the AC50 [1] read?
A: 15.8 µM [falling, partial curve]

Q: For `C=CCSc1nc2ccccc2n1Cc1nnc(-c2cccs2)o1`, which AC50 [1] is on record?
A: 0.1 µM [falling, full curve]

Q: For `COc1ccc(-c2noc(CSc3nnc(C)n3-c3ccc(OC)cc3)n2)cc1`, which AC50 [1] is on record?
A: 39.8 µM [falling, single point]

Q: For `CCOC(=O)Nc1ccc2c(c1)N(C(=O)CCN(C)C)c1ccccc1S2`, which AC50 [1] is on record?
A: 31.6 µM [falling, single point]

Q: With `COC(=O)c1c(-c2cccs2)csc1NC(=O)COc1c(C)ccc(C)c1C` as the compound, how does the AC50 [1] read?
A: 39.8 µM [falling, single point]

Q: Which AC50 [1] does the source give for `CCCCCSc1nc2sc3c(c2c(=O)n1-c1ccccc1)CCN(C(C)=O)C3` here?
A: 39.8 µM [falling, single point]

Q: With `CCc1cccc(NC(=O)c2cc3c(=O)n(Cc4ccc(OC)cc4)ccc3nc2C)c1` as the compound, how does the AC50 [1] read?
A: 12.6 µM [falling, partial curve]

Q: For `CCOC(=O)c1ccccc1NC(=O)c1ccc2c(=O)n3c(nc2c1)CCCCC3`, which AC50 [1] is on record?
A: 6.31 µM [rising, single point] [measured here: IkB-luc green channel]

Q: Which AC50 [1] does the source give for `CCCSc1nnc2c(n1)OC(c1sccc1C)Nc1ccccc1-2` (stereo not given) here?
A: 0.2 µM [rising, full curve]

Q: For `Cc1ccc(N2C(=O)N(CC(=O)C(C)(C)C)c3ccccc3S2(=O)=O)cc1C`, which AC50 [1] is on record?
A: 0.0158 µM [rising, full curve, poor fit]

Q: For `CCOc1ccc(CCNC(=O)c2ccc(Nc3nc4ccccc4n4nnnc34)cc2)cc1OCC`, which AC50 [1] is on record?
A: 2.51 µM [falling, full curve]

Q: With `O=C(CSc1nccc2ccccc12)N1CCN(c2ccccn2)CC1` as the compound, how does the AC50 [1] read?
A: 20 µM [falling, partial curve]

Q: For `O=C(Cc1cc(=O)[nH]c(=O)[nH]1)N1CCN(C(=O)c2ccco2)CC1`, which AC50 [1] is on record?
A: 0.501 µM [falling, full curve]

Q: For `Cc1cc2oc(C(=O)N(Cc3ccccc3F)C3CCS(=O)(=O)C3)c(C)c2cc1Cl` (stereo not given), which AC50 [1] is on record?
A: 31.6 µM [falling, single point]

Q: With `Cc1ccc(OC[C@H](O)[C@H](C)NC(C)C)c2c1CCC2` as the compound, how does the AC50 [1] read?
A: 39.8 µM [falling, partial curve, poor fit]

Q: Which AC50 [1] does the source give for `Cc1ccc(C2CC(=O)Nc3cc4c(cc32)OCCO4)cc1` (stereo not given) here?
A: 15.8 µM [falling, single point]

Q: Which AC50 [1] does the source give for `CC1Cc2ccccc2N1C(=O)COc1cccc(-n2cnnn2)c1` (stereo not given) here?
A: 39.8 µM [falling, single point]

Q: With `CCOc1ccc(C(=O)c2oc3ccccc3c2NC(=O)Cc2coc3cc(C)cc(C)c23)cc1` as the compound, how does the AC50 [1] read?
A: 3.98 µM [rising, single point]

Q: For `COc1ccccc1-c1cc(C(=O)Nc2ccc(F)cc2F)no1`, which AC50 [1] is on record?
A: 3.16e-05 µM [falling, full curve]

Q: For `CCOc1ccccc1N1CCN(C(=O)c2cccc(-c3ccc(O)cc3)c2)CC1`, which AC50 [1] is on record?
A: 20 µM [falling, partial curve]

Q: For `CCCCOC(=O)c1ccc(NC(=O)Cn2nnc3sc4c(c3c2=O)CCCC4)cc1`, which AC50 [1] is on record?
A: 39.8 µM [falling, single point]

Q: For `CC[C@@H](C)[C@H](NC(=O)OC(C)(C)C)c1nnc(S(=O)(=O)Cc2cc(C)ccc2C)o1`, which AC50 (measured here: IkB-luc green channel) is on record?
A: 6.31 µM [rising, single point]

Q: What about the AC50 (measured here: control luc red channel) of the same compound?
A: 10 µM [falling, partial curve]

Q: For `CCC(=O)N1CCc2cc(S(=O)(=O)CCC(=O)NCc3ccc(C)cc3)ccc21`, which AC50 [1] is on record?
A: 39.8 µM [rising, single point]

Q: Which AC50 [1] does the source give for `CCc1nc2oc3ccccc3c(=O)c2c(=O)n1-c1ccccc1` here?
A: 0.0501 µM [falling, full curve]

Q: For `CCc1cccc(NC(=O)C(Cc2ccccc2)NS(=O)(=O)c2ccc3c(c2)oc(=O)n3C)c1` (stereo not given), which AC50 [1] is on record?
A: 25.1 µM [falling, partial curve]

Q: Which AC50 [1] does the source give for `Cc1ccc(C2=CC(c3ccccc3F)n3c(nc4ccccc43)N2)cc1C` (stereo not given) here?
A: 0.1 µM [falling, full curve]

Q: Which AC50 [1] does the source give for `Nc1ccccc1NC1=CC(=O)CC(c2ccco2)C1` (stereo not given) here?
A: 10 µM [falling, partial curve]

Q: Which AC50 [1] does the source give for `CN(C)c1ccc(-n2c(CCC(=O)O)ccc2-c2ccccc2)cc1` here?
A: 25.1 µM [falling, partial curve]

Q: Which AC50 [1] does the source give for `COc1ccc(C2=NC(c3ccncc3)=Nc3ccc(Br)cc3N2)cc1` here?
A: 31.6 µM [falling, single point]

Q: Which AC50 [1] does the source give for `CCOC(=O)C1=C(CN2CCCCC2)NC(=O)NC1c1cc(C)ccc1C` (stereo not given) here?
A: 3.16 µM [falling, partial curve]

Q: With `CC(C)(C)c1ccc(OCCn2cc(C(=O)c3ccco3)c3ccccc32)cc1` as the compound, how does the AC50 [1] read?
A: 2 µM [falling, full curve]

Q: With `COc1ccccc1N1CCN(C(CNC(=O)C(=O)NCc2ccc(C)cc2)c2cccnc2)CC1` (stereo not given) as the compound, how does the AC50 [1] read?
A: 39.8 µM [falling, single point]

Q: Which AC50 [1] does the source give for `CCOC(=O)c1ccc(NS(=O)C23CC4CC(CC(C4)C2)C3)cc1` (stereo not given) here?
A: 25.1 µM [falling, partial curve]

Q: For `CCc1cccc(NC(=O)C2CCCN(S(=O)(=O)c3cccs3)C2)c1` (stereo not given), which AC50 [1] is on record?
A: 39.8 µM [falling, single point]

Q: Which AC50 [1] does the source give for `Cc1cccc(-n2ccnc2SCC(=O)Nc2ccc3c(c2)OCCO3)c1` here?
A: 10 µM [falling, partial curve]
